These are yes or no findings as the source states them, for the method shown. Binding can be weak; no strength is given.

The target in this test is Human IgG Fc fragment isolated from plasma (human). The test is described as follows: column capture from tobacco extract.

In the case of GDRRACSRDWSGALVWCAGHEPGPEGGGK (N-terminal acetylation; C-terminal amidation) [DX253], the binding result is recorded as “binds”.

Source of the values: patent US20030199671A1, “Binding molecules for Fc-region polypeptides” (priority 2001, published 2003).
